Results are given in words; binding and its absence hold for the method and conditions named. Some results given as binding are weak or reduced against the parent protein; the word gives no strength.
What was measured:
[1] = target: sarcosyl-insoluble tau (PHF-tau) isolated from human Alzheimer's disease brain (human) (UniProt P10636); test: hybridoma screening ELISA on coated PHF-tau
[2] = target: insoluble tau isolated from corticobasal degeneration (CBD) brain (human) (UniProt P10636); test: immunoblot of insoluble tau from CBD brain
[3] = target: insoluble tau isolated from FTD brain (human) (UniProt P10636); test: immunoblot of insoluble tau from FTD brain
fetal rat tau (rat) = fetal rat tau (rat) (UniProt P19332); test: immunoblot
[4] = target: sarcosyl-insoluble tau (PHF-tau) isolated from human Alzheimer's disease brain (human) (UniProt P10636); test: immunoblot
[5] = target: sarcosyl-insoluble tau (PHF-tau) isolated from human Alzheimer's disease brain (human) (UniProt P10636); test: immunoblot of insoluble tau from AD brain (Braak stage V)

Amino acid sequences for entries named in this document (tags omitted). A change or cut given only in a name is not applied to a line headed by its entry. Chains listed by the source or under a name are the forms on record and can include a tag or linker.
sarcosyl-insoluble tau (PHF-tau) isolated from human Alzheimer's disease brain (P10636, form named): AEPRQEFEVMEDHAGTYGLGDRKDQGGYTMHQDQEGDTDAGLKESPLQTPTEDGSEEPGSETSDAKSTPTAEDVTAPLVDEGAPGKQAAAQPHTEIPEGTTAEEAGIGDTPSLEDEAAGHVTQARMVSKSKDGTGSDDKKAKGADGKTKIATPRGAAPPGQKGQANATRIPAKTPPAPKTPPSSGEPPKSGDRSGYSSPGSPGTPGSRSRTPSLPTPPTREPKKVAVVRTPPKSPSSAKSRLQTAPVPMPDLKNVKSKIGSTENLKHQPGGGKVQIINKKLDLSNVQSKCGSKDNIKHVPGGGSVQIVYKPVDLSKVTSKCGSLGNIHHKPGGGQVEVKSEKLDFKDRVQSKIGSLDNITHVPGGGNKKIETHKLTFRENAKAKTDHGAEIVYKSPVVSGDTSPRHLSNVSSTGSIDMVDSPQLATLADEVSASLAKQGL
fetal rat tau (P19332, form named): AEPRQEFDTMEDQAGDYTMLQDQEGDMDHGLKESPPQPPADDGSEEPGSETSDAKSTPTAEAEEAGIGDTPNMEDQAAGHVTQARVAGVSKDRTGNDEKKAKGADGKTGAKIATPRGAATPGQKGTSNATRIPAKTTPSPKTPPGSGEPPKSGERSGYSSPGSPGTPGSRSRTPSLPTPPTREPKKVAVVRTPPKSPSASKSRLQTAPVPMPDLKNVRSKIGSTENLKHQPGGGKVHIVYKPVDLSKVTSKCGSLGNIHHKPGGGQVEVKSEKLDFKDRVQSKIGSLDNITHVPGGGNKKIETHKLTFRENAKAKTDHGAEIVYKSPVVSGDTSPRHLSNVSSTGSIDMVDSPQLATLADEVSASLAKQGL

binding [1]: binds
binding [2]: binds
binding [3]: binds
binding (fetal rat tau (rat)): binds
binding [4]: binds
binding [5]: binds
B1: monoclonal antibody DC2E7 (antibody, mouse IgG2a, V domains shown)
VH: DVQLVESGGGLVQPGGSRKLSCAASGFTFSSFGMHWVRQAPEKGLEWVAYISGDSNTIYYADTVKGRFTISRDNPKNTLFLQMTSLRSEDTAIYYCARTLAYWGQGTLVTVS
VL: DIQMTQSSSSFSVSLGDRVTITCKASEDIYNRLAWYQQTPGNAPSLLISGASGLETGVPSRFSGSGSGRDYTLSITSLQTEDVATYYCLQYWSIPWTFGGGTKLEIKR

— patent US20210139568A1
